Experimental findings from US20240116990A1 (Mayo Foundation for Medical Education and Research, priority 2022, published 2024) are described below.

The series in a line: peptide made by a vendor. To be noted: whole synthesis, acetate salt, one disulfide bridge, sequence written open.

End groups of sequences in plain letters are not given here.

As for “RALLTAPRSLRRSSCFGHKIDRINHVSNLGCNSFRYRITAREDKQGWA”, the “final HPLC purity” value was 97.9%.
